Assay: general procedure: peptide synthesis; DCC/HOBt; active esters with NMM in DMF
Settings: conjugation step; for final HPLC purity: RP-HPLC

| Substance | conjugation yield | final HPLC purity |
| --- | --- | --- |
| B1-((N-acetyl-L-thyroxyl)-(12-aminolauryl))-insulin (Human) | 21% of theory | 98.2% |
| B1-L-thyroxyl-(12-aminolauryl)-insulin (Human) | 27.3% of theory | 97.6% |
| B1-[D-thyroxyl-(12-aminolauryl)]-insulin (Human) | 25% of theory | 98% |

— US20030186847A1 (priority 2000, published 2003)
